Test results reported in PubChem BioAssay AID1347076 (National Center for Advancing Translational Sciences (NCATS), 2019).
In all, about 400,000 compounds went through this assay and about 13,000 (3.2%) were called active. Inconclusive results, whose numbers are uncertain, are shown with a selection of clear calls. Calls come from the whole dose curve; as a rule, active = well fitted cell-killing curve with a large enough effect; inconclusive = small, poorly fitted or top-dose-only effect, or effect the other way; inactive = flat fitted curve, though single readings scatter. A potency beside an inconclusive call is a rough fit, not a confirmed value.

assay: qHTS assay for MDR1-selective chemotherapeutics: Primary screen using the drug-selected MDR subline cells KB-V1; conditions: KB-V1 MDR cells viability, CellTiter-Glo, 72 h; activity change, negative = cytotoxicity: at 46.1 µM (top of the series); note: nearly all actives have a fitted effect of over 60% in size
Procedure, shortened: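 Following 72 h at 37 degrees C with compound, KB-V1 cell viability was read by CellTiter-Glo luminescence, medium being phenol-red-free DMEM plus 10% FBS; concentration-response parameters came from normalized, curve-fitted qHTS data.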
% is set by controls: 0 for no effect and ±100 for the full control effect; potency is the fitted concentration of half-maximal effect.

SMILES | activity change, negative = cytotoxicity | Potency
CCc1nc(SC)ncc1C(=O)NCc1cccc(Br)c1 | inactive: 1.65% | –
CC(C)n1c(N2CCN(C(=O)Nc3ccccc3)CC2)nc2ccccc21 | inactive: -7.66% | –
O=C(O)C/C(=C\c1cc2c(cc1Br)OCO2)c1nc2ccccc2s1 | – | inconclusive: 23.1 µM [rising, single point]
CCOc1cc(S(=O)(=O)Nc2ccccn2)ccc1F | – | inconclusive: 29.1 µM [rising, single point]
CN(C)C(=S)NC(=S)Nc1ccc2ccccc2c1 | – | active: 18.4 µM
COc1cc(OC)cc(C(=O)N[C@H](C(=O)Nc2nc(-c3ccc(OC)c(OC)c3)cs2)C(C)C)c1 | – | inconclusive: 8.2 µM [cytotoxic, partial curve]
COc1ccc2cc3cc(C(=O)NC(C)C)oc3nc2c1 | – | active: 2.31 µM
Cc1ccc(Cl)cc1N1CCN(c2nc3ccc(C(=O)c4ccccc4)cc3n3cnnc23)CC1 | inactive: 11.1% | –
O=C1NN=C2CCCCCCC12 (stereo unspecified) | inactive: 4.28% | –
COc1ccc(NC(=O)CN(C)CC(=O)Nc2cccc(S(=O)(=O)N(C)c3ccccc3)c2)cc1 | – | inconclusive: 18.4 µM [cytotoxic, single point]
COc1cccc(C2CC(c3ccc(C)cc3)=NN2C(=O)c2ccccc2F)c1OC (stereo unspecified) | – | inconclusive: 29.1 µM [cytotoxic, single point]
Cc1ccccc1Oc1ccc2c(c1)[C@@H]1C[C@H](N(C)C(=O)c3cccnc3)[C@H]([C@H](C)O)C(=O)N1CC2 | – | inconclusive: 23.1 µM [rising, single point]
CC1(C)C(=O)CC[C@]2(C)C3C(=O)C=C4[C@H]5C[C@@](C)(C(=O)O)CC[C@]5(C)CC[C@]4(C)[C@]3(C)CC[C@@H]12 (stereo partly specified) | inactive: 18.5% | –
CCCCn1c(N)c(N(CC)C(=O)C2CCC2)c(=O)[nH]c1=O | – | inconclusive: 13 µM [cytotoxic, partial curve]
NS(=O)(=O)c1ccc(NC(=O)CN2C(=O)C3C4C=CC(C4)C3C2=O)cc1 (stereo unspecified) | inconclusive: 47.4% | –
Cc1ccc(N2CCN(C(=O)c3cc(C(=O)c4ccccc4C)c[nH]3)CC2)c(C)c1 | – | inconclusive: 0.517 µM [cytotoxic, full curve, poor fit]
CC(=NC1CCCC1)c1c(C)[nH]n(-c2nc3ccccc3s2)c1=O | – | inconclusive: 20.6 µM [cytotoxic, partial curve]
CCN1CCc2c(C#N)c(N3CCCCC3)nc(NCc3ccccc3)c2C1 | – | inconclusive: 29.1 µM [cytotoxic, single point]
c1ccc(CC2CCN(C3=Nc4cccc5cccc3c45)CC2)cc1 | – | inconclusive: 20.6 µM [cytotoxic, single point]
O=C(NCCc1ccccc1)c1c[nH]c2ccc(S(=O)(=O)Nc3ccc(F)cc3F)cc2c1=O | – | inconclusive: 18.4 µM [rising, single point]
CCOc1ccc(NC(=O)NCCN2CCN(c3cc(Cl)ccc3C)CC2)cc1 | inactive: -6.22% | –
CCCN1CCN(S(=O)(=O)c2ccc3c(c2)NC(=O)C(C)S3)CC1 (stereo unspecified) | – | inconclusive: 2.91 µM [cytotoxic, full curve, poor fit]
CCOC(=O)c1c(Nc2ccc(C)c(C)c2)nnc(-c2ccccc2)c1-c1ccccc1 | inactive: -17.5% | –

SMILES | activity change, negative = cytotoxicity | Potency
COc1cccc2sc(N(CCCN(C)C)C(=O)c3ccc(S(=O)(=O)N4CCc5ccccc5C4)cc3)nc12 | inactive: 0% | –
Cc1ccccc1-c1nnc(SCc2ccc(F)cc2)o1 | – | inconclusive: 18.4 µM [cytotoxic, single point]
N#CCN1C(=S)N=C(Nc2cccc(Cl)c2)C12CCCCC2 | – | inconclusive: 11.6 µM [cytotoxic, partial curve, poor fit]
Cc1ccc(NS(=O)(=O)c2ccc(CCC(=O)N3CCCC3)cc2)cc1 | – | inconclusive: 20.6 µM [cytotoxic, single point]
CSc1ccc(OC2(C)CCN(Cc3ccc(C(C)C)cc3)C2)cc1 (stereo unspecified) | inactive: -4.06% | –
CCC1Nc2ncnc(N3CCc4ccccc4C3)c2N(Cc2ccc(Cl)cc2)C1=O (stereo unspecified) | inactive: -4.71% | –
CCCN1C(=O)C(=O)N(CC(=O)c2cc(C)n(C3CC3)c2C)C1=O | – | active: 20.6 µM
CC1(C)CC2CC(C)(CN2C(=S)Nc2ccccc2)C1 (stereo unspecified) | – | inconclusive: 18.4 µM [cytotoxic, single point]
CCOc1cc(C)nc(NCc2ccccc2)n1 | inactive: 0% | –
Cc1ccc(S(=O)(=O)NCCC(=O)NC2CCN(Cc3ccccc3)CC2)cc1 | – | inconclusive: 23.1 µM [cytotoxic, single point]
C=C(C)CN(CC)C(=O)c1ccc(OC2CCN(S(=O)(=O)N(C)C)CC2)cc1 | inactive: -10.7% | –
COc1ccc(C(O)(CCC(C)C)C(CN2CCOCC2)c2ccccc2)cc1 (stereo unspecified) | – | inconclusive: 29.1 µM [cytotoxic, single point]
CC(C)(C)n1nnnc1C(c1ccccc1)N1CCCN(Cc2ccc(F)cc2)CC1 (stereo unspecified) | – | inconclusive: 4.61 µM [cytotoxic, partial curve]
CC(=O)N1CCN(C(=O)CCc2nc3ccccc3c(=O)[nH]2)CC1 | inactive: 23.8% | –
COc1ccc(C(=O)CC2(O)C(=O)N(Cc3ccccc3)c3ccc(Br)cc32)cc1 (stereo unspecified) | inconclusive: -9.8% | –
CC(=O)Nc1ccc(Nc2ncnc3c2cnn3-c2cccc(C)c2)cc1 | – | active: 16.4 µM
O=C1CCC2(CC1)NC(=O)N(c1ccccc1)N2 | inactive: -1.71% | –
CN(c1ccc(C(=O)N2CCN(Cc3ccccc3)CC2)cc1)S(=O)(=O)c1ccc(Cl)cc1 | – | inconclusive: 25.9 µM [cytotoxic, single point]
Nc1nc(-c2cccnc2)nc2sc3c(c12)CCCC3 | – | inconclusive: 23.1 µM [cytotoxic, partial curve, poor fit]
CCOC(=O)c1ccccc1NC(=O)CN(c1ccccc1)S(=O)(=O)c1ccc(OCC)cc1 | inactive: -20.6% | –
O=C1Nc2ccccc2/C1=C\C(=O)c1ccccc1 | inactive: 7.44% | –
COc1ccccc1NS(=O)(=O)c1ccc(-c2cnc(C3CC3)o2)cc1 | – | inconclusive: 2.06 µM [cytotoxic, full curve, poor fit]
O=C1C(Cl)=C(N2CCC(C(=O)O)CC2)C(=O)c2ccccc21 | inconclusive: 12.6% | –

Look-ups from the results shown.
C=C(C)CN(CC)C(=O)c1ccc(OC2CCN(S(=O)(=O)N(C)C)CC2)cc1 | activity change, negative = cytotoxicity: inactive: -10.7%
Cc1ccc(S(=O)(=O)NCCC(=O)NC2CCN(Cc3ccccc3)CC2)cc1 | Potency: inconclusive: 23.1 µM [cytotoxic, single point]
COc1ccc(C(O)(CCC(C)C)C(CN2CCOCC2)c2ccccc2)cc1 (stereo unspecified) | Potency: inconclusive: 29.1 µM [cytotoxic, single point]
